Results as given in patent publication US20100041596A1.
Results are given in words; binding and its absence hold for the method and conditions named. For part of these data: Binding seen in cells or lysates may run through a third protein. Some entries that bind do so weakly or less than the wild type. Each block holds one substance with its values, some of them ahead of it.

By UniProt entry, the sequences of proteins in these tests, tags left out. Where a name states a change or a piece, a line headed by the entry shows the natural chain unless it says otherwise.
UniProt P25942: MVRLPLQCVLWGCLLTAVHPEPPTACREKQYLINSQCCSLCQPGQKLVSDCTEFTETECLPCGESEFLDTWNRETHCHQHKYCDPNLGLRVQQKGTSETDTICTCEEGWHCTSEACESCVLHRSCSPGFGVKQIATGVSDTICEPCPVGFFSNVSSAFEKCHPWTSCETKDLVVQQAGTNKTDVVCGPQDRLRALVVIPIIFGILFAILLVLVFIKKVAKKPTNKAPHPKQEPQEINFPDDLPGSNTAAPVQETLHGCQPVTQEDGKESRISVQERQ
UniProt P20333: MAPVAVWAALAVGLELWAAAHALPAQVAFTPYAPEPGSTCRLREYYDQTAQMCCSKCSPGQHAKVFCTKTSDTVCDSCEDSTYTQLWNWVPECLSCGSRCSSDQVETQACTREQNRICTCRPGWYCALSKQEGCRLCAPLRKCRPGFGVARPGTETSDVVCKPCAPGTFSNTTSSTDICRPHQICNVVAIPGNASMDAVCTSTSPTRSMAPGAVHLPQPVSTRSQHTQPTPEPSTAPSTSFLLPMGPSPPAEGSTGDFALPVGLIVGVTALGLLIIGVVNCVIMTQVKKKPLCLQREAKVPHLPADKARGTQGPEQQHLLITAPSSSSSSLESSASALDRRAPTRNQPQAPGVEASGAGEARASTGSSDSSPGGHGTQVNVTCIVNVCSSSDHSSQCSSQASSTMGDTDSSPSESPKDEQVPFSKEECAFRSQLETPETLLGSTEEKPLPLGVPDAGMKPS
UniProt O00220: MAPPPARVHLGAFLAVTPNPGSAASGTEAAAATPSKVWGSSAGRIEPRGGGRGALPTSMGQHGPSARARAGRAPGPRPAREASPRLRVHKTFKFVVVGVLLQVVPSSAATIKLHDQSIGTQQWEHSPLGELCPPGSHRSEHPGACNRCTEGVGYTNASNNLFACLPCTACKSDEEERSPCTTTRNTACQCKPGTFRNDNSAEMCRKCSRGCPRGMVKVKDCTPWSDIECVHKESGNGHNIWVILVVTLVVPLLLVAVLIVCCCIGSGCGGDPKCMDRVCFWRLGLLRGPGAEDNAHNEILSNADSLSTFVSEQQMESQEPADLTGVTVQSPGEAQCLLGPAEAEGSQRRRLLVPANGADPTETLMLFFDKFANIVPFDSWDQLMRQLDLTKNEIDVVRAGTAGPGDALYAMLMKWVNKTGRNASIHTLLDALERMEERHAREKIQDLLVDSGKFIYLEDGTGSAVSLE
UniProt P25445: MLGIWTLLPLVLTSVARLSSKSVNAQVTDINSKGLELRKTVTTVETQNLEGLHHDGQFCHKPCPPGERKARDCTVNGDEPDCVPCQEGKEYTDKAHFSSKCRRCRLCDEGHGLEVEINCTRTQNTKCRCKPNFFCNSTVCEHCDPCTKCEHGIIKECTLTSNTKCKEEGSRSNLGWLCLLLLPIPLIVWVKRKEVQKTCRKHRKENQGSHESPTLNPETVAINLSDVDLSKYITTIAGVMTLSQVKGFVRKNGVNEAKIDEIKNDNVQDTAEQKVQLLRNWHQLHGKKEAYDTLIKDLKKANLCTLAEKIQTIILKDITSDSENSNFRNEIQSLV

What was measured:
[1] = molecular target: CD40 chimeras with CFP or YFP (FIG. 3C) (Homo sapiens (Human)) (UniProt P25942); assay: flow cytometric FRET between CFP and YFP fusions
[2] = molecular target: HA-Fas 1-210:GFP [GFP: P42212]; assay: co-immunoprecipitation with anti-GFP, anti-Fas C-terminal blot
[3] = molecular target: N-terminal region of the ECD of p80 (yeast two-hybrid) (Homo sapiens (Human)) (UniProt P20333); assay: yeast two-hybrid interaction assay
[4] = molecular target: DR4 chimeras with CFP or YFP (FIG. 3C) (Homo sapiens (Human)) (UniProt O00220); assay: flow cytometric FRET between CFP and YFP fusions
[5] = molecular target: p80ΔCD-YFP (Homo sapiens (Human)) (UniProt P20333); assay: flow cytometric FRET, 293T cells
[6] = molecular target: p80 TNFR, full-length (Homo sapiens (Human)) (UniProt P20333); assay: co-immunoprecipitation with C-terminal-specific anti-p80 antibody, anti-HA blot, 293T cells

binding [1]: binds
Substance: CD40 chimeras with CFP or YFP (FIG. 3C) (from UniProt P25942 21-220) (receptor)

binding [2]: binds
Substance: wild-type (WT) Fas (from UniProt P25445 26-335) (receptor)

binding [3]: binds
Substance: N-terminal region of the ECD of p80 (yeast two-hybrid) (from UniProt P20333 23-76) (receptor)

binding [4]: binds
Substance: DR4 chimeras with CFP or YFP (FIG. 3C) (from UniProt O00220 24-267) (receptor)

binding [5]: binds
Substance: p80ΔCD-CFP (from UniProt P20333 23-292) (receptor)

binding [6]: binds
Substance: p80ΔCD-HA (from UniProt P20333 23-292) (receptor)
